This assay addresses PD-L1 (Biacore, Example 1.6) (UniProt Q9NZQ7). The experiment in a line: Biacore. (In general: SPR reads the build-up and loss of mass on a sensor chip optically.)

Protein sequences, listed by entry. Tags and fused reporters are not part of them.
UniProt Q9NZQ7: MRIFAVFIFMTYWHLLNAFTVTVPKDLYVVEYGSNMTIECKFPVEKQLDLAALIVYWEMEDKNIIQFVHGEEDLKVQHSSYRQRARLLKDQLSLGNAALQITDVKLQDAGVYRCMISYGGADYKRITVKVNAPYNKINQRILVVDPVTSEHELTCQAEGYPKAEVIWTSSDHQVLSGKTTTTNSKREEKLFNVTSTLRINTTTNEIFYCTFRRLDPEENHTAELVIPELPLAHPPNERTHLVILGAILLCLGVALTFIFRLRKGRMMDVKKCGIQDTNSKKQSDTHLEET

We go through 2 molecules from patent publication US20230192861A1.

These are yes or no findings as the source states them, for the method shown. Some results given as binding are weak or reduced against the parent protein; the word gives no strength.

B1: H12 (antibody, V domains shown)
VH: EVQLVESGGGLVQPGGSLRLSCAASGFTFSSYDMSWVRQAPGKSLEWVATISDAGGYIYYSDSVKGRFTISRDNAKNSLYLQMNSLRDEDTAVYICAREFGKRYALDYWGQGTTVTVSS
VL: DIQMTQSPSSLSASVGDRVTITCKASQDVTPAVAWYQQKPGKAPKLLIYSTSSRYTGVPSRFSGSGSGTDFTFTISSLQPEDIATYYCQQHYTTPLTFGQGTKLEIK
For the molecule B1, the binding result was “binds”.

B2: B6 (anti-PD-L1) (antibody, V domains shown)
VH: EVQLVESGGGLVQPGGSLRLSCAASGFTFSSYDMSWVRQAPGKSLEWVATISDAGGYIYYRDSVKGRFTISRDNAKNSLYLQMNSLRDEDTAVYICARELPWRYALDYWGQGTTVTVSS
VL: DIQMTQSPSSLSASVGDRVTITCKASQDVTPAVAWYQQKPGKAPKLLIYSTSSRYTGVPSRFSGSGSGTDFTFTISSLQPEDIATYYCQQHYTTPLTFGQGTKLEIK
On to B2, for which the binding entry is recorded as “binds”.
